No constants are given. Whether binding was seen depends on the method and setting. Some binding calls cover weakened binding; strength is not graded here.
Assays:
[1] = target: human B7-4.Ig fusion protein (murine Ig gamma2a) (human; murine) [IgG part: P01863]; assay: BIACORE, soluble human B7-4.Ig co-injected with soluble hPD-1.Ig over immobilized mPD-1.Ig, hPD-1.Ig and hCTLA-4.Ig
[2] = target: human B7-4.Ig fusion protein (murine Ig gamma2a) (human; murine) [IgG part: P01863]; assay: BIACORE, soluble human B7-4.Ig co-injected with soluble mPD-1.Ig over immobilized mPD-1.Ig, hPD-1.Ig and hCTLA-4.Ig

Sequences of proteins named here, by UniProt entry; tags and fusion partners are left off. A change or cut given only in a name is not applied to a line headed by its entry. Residues count along the entry.
UniProt Q15116: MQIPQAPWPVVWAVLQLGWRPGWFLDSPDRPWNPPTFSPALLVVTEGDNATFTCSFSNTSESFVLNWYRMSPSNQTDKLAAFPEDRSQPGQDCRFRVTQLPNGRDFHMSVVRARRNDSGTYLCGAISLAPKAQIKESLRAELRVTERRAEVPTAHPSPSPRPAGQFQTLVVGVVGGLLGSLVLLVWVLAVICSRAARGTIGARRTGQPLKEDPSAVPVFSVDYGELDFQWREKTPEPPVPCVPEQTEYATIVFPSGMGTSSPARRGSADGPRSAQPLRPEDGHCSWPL
UniProt Q02242, residues 25-167: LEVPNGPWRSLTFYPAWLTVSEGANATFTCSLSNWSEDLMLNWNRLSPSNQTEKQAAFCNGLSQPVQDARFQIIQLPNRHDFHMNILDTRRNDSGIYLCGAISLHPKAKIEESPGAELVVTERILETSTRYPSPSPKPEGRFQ

binding [1]	binding [2]	Substance
binds	–	human PD-1.Ig (Ig portion not stated in the experiment) (from UniProt Q15116 25-167) (Fc fusion)
–	binds	murine PD-1-Fc (from UniProt Q02242 25-167) (Fc fusion)

Reference: US20030044768A1
